In the supplement of paper PMC4604168 (melanoma cell lines):
The list shows a part of the results. Repeats are few or missing, and single values can be far off.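 Imaging used 1,536-well plates; nuclei positive for cleaved PARP by antibody were divided by total DNA-stained nuclei to yield the apoptosis fraction. Doses for screening kept most cells viable, and cell lines differ markedly in resting and induced cleaved-PARP levels.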

Assays:
Assay in all cases: cleaved PARP positive nuclei fraction relative to DMSO control; melanoma cells; higher = more apoptosis
Settings in all cases: library dose: low library concentration; 72 h
WM115 = tested on: WM115
WM1716 = tested on: WM1716
WM1745 = tested on: WM1745
WM3526 = tested on: WM3526
WM3619 = tested on: WM3619
WM451Lu = tested on: WM451Lu

Structure (SMILES)	cleaved PARP positive nuclei fraction (WM115) [%]	cleaved PARP positive nuclei fraction (WM1716) [%]	cleaved PARP positive nuclei fraction (WM1745) [%]	cleaved PARP positive nuclei fraction (WM3526) [%]	cleaved PARP positive nuclei fraction (WM3619) [%]	cleaved PARP positive nuclei fraction (WM451Lu) [%]
CN(c1ncccc1CNc1nc(Nc2ccc3c(c2)CC(=O)N3)ncc1C(F)(F)F)S(C)(=O)=O + OCCn1cc(-c2cnc3nnn(Cc4ccc5ncccc5c4)c3n2)cn1 [PF04217903] (first compound 0.08 µM, partner dose 1 µM)	167	164	107	57.9	126	916
CCCCCCCCc1ccc(CCC(N)(CO)CO)cc1 [fingolimod] + CN1CCN(c2ccc3nc(-c4c(N)c5c(F)cccc5[nH]c4=O)[nH]c3c2)CC1 [Dovitinib] (first compound 2 µM, partner dose 0.1 µM)	89.7	466	117	83.3	97.5	117
C[C@@H](N)c1ccc(C(=O)Nc2ccnc3[nH]ccc23)cc1 + CN1CCN(c2ccc3nc(-c4c(N)c5c(F)cccc5[nH]c4=O)[nH]c3c2)CC1 [Dovitinib] (first compound 0.4 µM, partner dose 0.1 µM)	41.5	127	145	80.4	109	56.2
CC(=O)O[C@@]12CO[C@@H]1C[C@H](O)[C@@]1(C)C(=O)[C@H](O)C3=C(C)[C@@H](OC(=O)[C@H](O)[C@@H](NC(=O)OC(C)(C)C)c4ccccc4)C[C@@](O)([C@@H](OC(=O)c4ccccc4)[C@H]21)C3(C)C [Docetaxel] + COc1ccc(-c2ccc3c(N4CCOCC4)nc(N4C[C@@H](C)O[C@@H](C)C4)nc3n2)cc1CO [KU0063794] (first compound 0.0001 µM, partner dose 0.02 µM)	356	1060	183	383	135	305
CN(c1ncccc1CNc1nc(Nc2ccc3c(c2)CC(=O)N3)ncc1C(F)(F)F)S(C)(=O)=O + Oc1cc(-c2nc(-c3ccccc3)[nH]c2-c2ccncc2)ccc1Cl [L779450] (first compound 0.08 µM, partner dose 0.2 µM)	151	54.7	124	182	120	243
CS(=O)(=O)c1ccc(C(=O)Nc2ccc(Cl)c(-c3ccccn3)c2)c(Cl)c1 [vismodegib] + C#Cc1cccc(Nc2ncnc3cc(OCCOC)c(OCCOC)cc23)c1 [erlotinib] (first compound 1 µM, partner dose 0.8 µM)	60.1	1490	109	88.8	76.3	93.7
Cn1cnc2c(F)c(Nc3ccc(Br)cc3Cl)c(C(=O)NOCCO)cc21 [selumetinib] + Cc1ccc(NC(=O)c2cccc(N(C)C)c2)cc1NC(=O)c1ccc(O)cc1 [ZM336372] (first compound 0.015 µM, partner dose 2 µM)	214	41.9	105	66.2	58.6	144
CN(c1ncccc1CNc1nc(Nc2ccc3c(c2)CC(=O)N3)ncc1C(F)(F)F)S(C)(=O)=O + O=C(O)[C@@H]1[O][Sb](=[O])([O][Sb]2(=[O])[O][C@H]([C@H](O)CO)[C@H](O)[C@H](C(=O)O)[O]2)[O][C@H]([C@H](O)CO)[C@@H]1O [stibogluconate] (first compound 0.08 µM, partner dose 2 µM)	95.9	106	114	42.1	80.8	196
CN(c1ncccc1CNc1nc(Nc2ccc3c(c2)CC(=O)N3)ncc1C(F)(F)F)S(C)(=O)=O + OCc1c[nH]c2ccccc12 [Indole-3-carbinol] (first compound 0.08 µM, partner dose 0.8 µM)	127	58.9	114	315	119	156
COc1ccc(C2=N[C@@H](c3ccc(Cl)cc3)[C@@H](c3ccc(Cl)cc3)N2C(=O)N2CCNC(=O)C2)c(OC(C)C)c1 [Nutlin-3] + O=S(=O)(c1ccccc1)N(CC(F)(F)F)c1ccc(C(O)(C(F)(F)F)C(F)(F)F)cc1 [T0901317] (first compound 0.1 µM, partner dose 1.4 µM)	184	280	118	265	122	73.5
C[C@@H](N)c1ccc(C(=O)Nc2ccnc3[nH]ccc23)cc1 + COCC[n+]1c2c(n(Cc3cnccn3)c1C)C(=O)c1ccccc1C2=O [YM155] (first compound 0.4 µM, partner dose 0.0004 µM)	17.6	203	115	63	62.9	59.2
CN(c1ncccc1CNc1nc(Nc2ccc3c(c2)CC(=O)N3)ncc1C(F)(F)F)S(C)(=O)=O + COC(=O)c1sccc1S(=O)(=O)Nc1ccc(Nc2ccccc2)cc1OC [GSK0660] (first compound 0.08 µM, partner dose 1 µM)	315	103	116	72.8	86.2	68
CCCCCCCCc1ccc(CCC(N)(CO)CO)cc1 [fingolimod] + C[C@@H]1CCN(C(=O)CC#N)C[C@@H]1N(C)c1ncnc2[nH]ccc12 [CP690550] (first compound 2 µM, partner dose 1 µM)	36.1	267	115	134	85.5	112
CCCCCCCCc1ccc(CCC(N)(CO)CO)cc1 [fingolimod] + CC1(C)NC(=O)N(c2ccc([N+](=O)[O-])c(C(F)(F)F)c2)C1=O [nilutamide] (first compound 2 µM, partner dose 1 µM)	106	138	120	64.5	109	83.9
C[C@]1(O)C[C@@H](c2nc(-c3ccc4ccc(-c5ccccc5)nc4c3)c3c(N)nccn32)C1 + CC(C)CCN1c2nc(Nc3cc(F)c(O)c(F)c3)ncc2N(C)C(=O)C1C [BID1870] (first compound 0.4 µM, partner dose 0.2 µM)	460	144	118	255	86.5	43.2
CC(=O)O[C@@]12CO[C@@H]1C[C@H](O)[C@@]1(C)C(=O)[C@H](O)C3=C(C)[C@@H](OC(=O)[C@H](O)[C@@H](NC(=O)OC(C)(C)C)c4ccccc4)C[C@@](O)([C@@H](OC(=O)c4ccccc4)[C@H]21)C3(C)C [Docetaxel] + CCN(CC)CCCCNc1ncc2cc(-c3cc(OC)cc(OC)c3)c(NC(=O)NC(C)(C)C)nc2n1 [PD173074] (first compound 0.0001 µM, partner dose 0.1 µM)	746	928	165	161	117	59.6
CS(=O)(=O)c1ccc(C(=O)Nc2ccc(Cl)c(-c3ccccn3)c2)c(Cl)c1 [vismodegib] + CN1CCN(c2ccc3nc(-c4c(N)c5c(F)cccc5[nH]c4=O)[nH]c3c2)CC1 [Dovitinib] (first compound 1 µM, partner dose 0.1 µM)	58.8	32.8	82	50.3	96.2	97.6
CN(c1ncccc1CNc1nc(Nc2ccc3c(c2)CC(=O)N3)ncc1C(F)(F)F)S(C)(=O)=O + CC1(C)NC(=O)N(c2ccc([N+](=O)[O-])c(C(F)(F)F)c2)C1=O [nilutamide] (first compound 0.08 µM, partner dose 1 µM)	150	103	102	67.3	95.4	65.6
Cn1sc(=O)n(Cc2ccccc2)c1=O + Nc1nc(F)nc2c1ncn2[C@@H]1O[C@H](CO)[C@@H](O)[C@@H]1O [fludarabine] (first compound 0.4 µM, partner dose 0.2 µM)	210	47	80.2	350	105	192
CCN(CC)CCNC(=O)c1c(C)[nH]c(/C=C2\C(=O)Nc3ccc(F)cc32)c1C [sunitinib] + Cn1nnc2c(C(N)=O)ncn2c1=O [temozolomide] (first compound 0.4 µM, partner dose 2 µM)	72.2	36	116	94.2	81.7	94.3
Cn1sc(=O)n(Cc2ccccc2)c1=O + COc1cc(Nc2ncc(F)c(Nc3ccc4c(n3)NC(=O)C(C)(C)O4)n2)cc(OC)c1OC [Tamatinib] (first compound 0.4 µM, partner dose 0.4 µM)	107	133	138	142	155	79.9
CC(=O)O[C@@]12CO[C@@H]1C[C@H](O)[C@@]1(C)C(=O)[C@H](O)C3=C(C)[C@@H](OC(=O)[C@H](O)[C@@H](NC(=O)OC(C)(C)C)c4ccccc4)C[C@@](O)([C@@H](OC(=O)c4ccccc4)[C@H]21)C3(C)C [Docetaxel] + COc1ccc(Cl)c(Nc2nc3ccccc3nc2NS(=O)(=O)c2cccc(NC(=O)C(C)(C)N)c2)c1 [XL147] (first compound 0.0001 µM, partner dose 0.8 µM)	275	173	151	261	271	78.4

Record cards, as listed above:
Cn1sc(=O)n(Cc2ccccc2)c1=O + Nc1nc(F)nc2c1ncn2[C@@H]1O[C@H](CO)[C@@H](O)[C@@H]1O [fludarabine] (first compound 0.4 µM, partner dose 0.2 µM) as listed: cleaved PARP positive nuclei fraction (WM115) [%]: 210; cleaved PARP positive nuclei fraction (WM1716) [%]: 47; cleaved PARP positive nuclei fraction (WM1745) [%]: 80.2; cleaved PARP positive nuclei fraction (WM3526) [%]: 350; cleaved PARP positive nuclei fraction (WM3619) [%]: 105; cleaved PARP positive nuclei fraction (WM451Lu) [%]: 192
CN(c1ncccc1CNc1nc(Nc2ccc3c(c2)CC(=O)N3)ncc1C(F)(F)F)S(C)(=O)=O + O=C(O)[C@@H]1[O][Sb](=[O])([O][Sb]2(=[O])[O][C@H]([C@H](O)CO)[C@H](O)[C@H](C(=O)O)[O]2)[O][C@H]([C@H](O)CO)[C@@H]1O [stibogluconate] (first compound 0.08 µM, partner dose 2 µM) as listed: cleaved PARP positive nuclei fraction (WM115) [%]: 95.9; cleaved PARP positive nuclei fraction (WM1716) [%]: 106; cleaved PARP positive nuclei fraction (WM1745) [%]: 114; cleaved PARP positive nuclei fraction (WM3526) [%]: 42.1; cleaved PARP positive nuclei fraction (WM3619) [%]: 80.8; cleaved PARP positive nuclei fraction (WM451Lu) [%]: 196
